Test results published in US20260083130A1, “NOVEL SULFONATE BENZAMIDE COMPOUNDS FOR CONTROLLING INVERTEBRATE PESTS” (FMC CORPORATION, priority 2022, published 2026).
Some entries share one result that the patent states for a list of compounds. For part of these data: At least one compound was matched to its structure with a doubt left.

Experiments:
Format in all cases: in vivo
[1] = test system: Diamond Back Moth (Plutella xylostella L.); experiment: Test A: control of Diamond Back Moth, foliar spray on mustard plant; conditions: neonate larvae, assessed after six days
[2] = test system: fall armyworm (Spodoptera frugiperda (J. E. Smith)); experiment: Test B: control of fall armyworm, foliar spray on corn plant; conditions: one-day-old larvae, assessed after 6 days
[3] = test system: Western Flower Thrips (Frankliniella occidentalis Pergande); experiment: Test F: control of Western Flower Thrips, spray on Soleil bean plant; conditions: sprayed at 250 ppm; adult thrips; assessed after 7 days

Structure (SMILES) | control efficacy (feeding damage) ([1]; sprayed at 50 ppm) | control efficacy (feeding damage) ([1]; sprayed at 250 ppm) | control efficacy (feeding damage) ([2]; sprayed at 50 ppm) | control efficacy (feeding damage) ([2]; sprayed at 250 ppm) | also measured
CC(NC(=O)c1cc(OS(=O)(=O)C(F)(F)F)cc(C(F)(F)F)c1)c1ncnn1-c1ccc(C#N)cn1 (stereo not drawn) [Compound 19, 3-[[[1-[1-(5-cyano-2-pyridinyl)-1H-1,2,4-triazol-5-yl]ethyl]amino]carbonyl]-5-(trifluoromethyl)phenyl 1,1,1-trifluoromethanesulfonate] | ≤ 20% | ≤ 20% | ≤ 20% | ≤ 20% | control efficacy (feeding damage) ([1]; sprayed at 2 ppm): ≤ 20%; control efficacy (feeding damage) ([1]; sprayed at 10 ppm): ≤ 20%; control efficacy (feeding damage) ([2]; sprayed at 2 ppm): ≤ 20%; control efficacy (feeding damage) ([2]; sprayed at 10 ppm): ≤ 20%
CC(NC(=O)c1cc(OS(=O)(=O)c2ccccc2C(F)(F)F)cc(C(F)(F)F)c1)c1ncnn1-c1ncccn1 (stereo not drawn) [Compound 35] | ≤ 20% |  |  |  | 
CC(NC(=O)c1cc(Br)cc(OS(=O)(=O)C(F)(F)F)c1)c1ncnn1-c1ccc(C#N)cn1 (stereo not drawn) [Compound 67] | ≤ 20% | ≤ 20% | ≤ 20% | ≤ 20% | control efficacy (feeding damage) ([1]; sprayed at 2 ppm): ≤ 20%; control efficacy (feeding damage) ([1]; sprayed at 10 ppm): ≤ 20%; control efficacy (feeding damage) ([2]; sprayed at 10 ppm): ≤ 20%
COCCS(=O)(=O)Oc1cc(C(=O)NC(C)c2ncnn2-c2ncccn2)cc(C(F)(F)F)c1 (stereo not drawn) [Compound 22] |  | ≤ 20% |  |  | 
CC(NC(=O)c1cc(OS(=O)(=O)C(F)(F)F)cc(OS(=O)(=O)C(F)(F)F)c1)c1ncnn1-c1ncccn1 (stereo not drawn) [Compound 16, 1,1′-[5-[[[1-[1-(2-pyrimidinyl)-1H-1,2,4-triazol-5-yl]ethyl]amino]carbonyl]-1,3-phenylene] bis(1,1,1-trifluoromethanesulfonate)] |  | ≤ 20% |  | ≤ 20% | 
CC(NC(=O)c1cc(OS(=O)(=O)C(F)(F)F)cc([N+](=O)[O-])c1)c1ncnn1-c1ncccn1 (stereo not drawn) [Compound 46] |  | ≤ 20% |  |  | control efficacy (feeding damage) [3]: ≤ 20%
COCCS(=O)(=O)Oc1cc(Cl)cc(C(=O)NC(C)c2ncnn2-c2ncccn2)c1 (stereo not drawn) [Compound 49] |  | ≤ 20% |  |  | 
CC(NC(=O)c1cc(Cl)cc(OS(=O)(=O)C(F)F)c1)c1ncnn1-c1ccc(C#N)cn1 (stereo not drawn) [Compound 18, 3-Chloro-5-[[[1-[1-(5-cyano-2-pyridinyl)-1H-1,2,4-triazol-5-yl]ethyl]amino]carbonyl]phenyl 1,1-difluoromethanesulfonate] | ≤ 20% | ≤ 20% | ≤ 20% | ≤ 20% | control efficacy (feeding damage) ([1]; sprayed at 10 ppm): ≤ 20%; control efficacy (feeding damage) ([2]; sprayed at 10 ppm): ≤ 20%
CCOC(=O)CS(=O)(=O)Oc1cc(C(=O)NC(C)c2ncnn2-c2ccc(C#N)cn2)cc(C(F)(F)F)c1 (stereo not drawn) [Compound 59] | ≤ 20% | ≤ 20% |  |  | control efficacy (feeding damage) [3]: ≤ 20%
C[C@H](NC(=O)c1cc(OS(=O)(=O)C(F)(F)F)cc(C(F)(F)F)c1)c1ncnn1-c1ncccn1 [Compound 12, 3-[[[(1S)-[1-(2-Pyrimidinyl)-1H-1,2,4-triazol-5-yl]ethyl]amino]carbonyl]-5-(trifluoromethyl)phenyl 1,1,1-trifluoromethanesulfonate; (−) enantiomer] |  | ≤ 20% |  |  | 
CC(NC(=O)c1cc(OS(=O)(=O)C(F)F)cc(C(F)(F)F)c1)c1ncnn1-c1ncccn1 (stereo not drawn) [Compound 38] | ≤ 20% |  | ≤ 20% |  | control efficacy (feeding damage) ([1]; sprayed at 10 ppm): ≤ 20%
CC(NC(=O)c1cc(OS(=O)(=O)c2ccc(OC(F)(F)F)cc2)cc(C(F)(F)F)c1)c1ncnn1-c1ncccn1 (stereo not drawn) [Compound 37] | ≤ 20% |  | ≤ 20% |  | 
CC(NC(=O)c1cc(OS(=O)(=O)C(F)F)cc(C(F)(F)F)c1)c1ncnn1-c1ccc(C#N)cn1 (stereo not drawn) [Compound 63] | ≤ 20% |  | ≤ 20% |  | control efficacy (feeding damage) ([1]; sprayed at 10 ppm): ≤ 20%
CC(NC(=O)c1cc(Cl)cc(OS(=O)(=O)CC(F)(F)F)c1)c1ncnn1-c1ncccn1 (stereo not drawn) [Compound 52] |  | ≤ 20% |  |  | 
CC(NC(=O)c1cc(OS(=O)(=O)CC(F)(F)F)cc(C(F)(F)F)c1)c1ncnn1-c1ccc(C#N)cn1 (stereo not drawn) [Compound 58] | ≤ 20% | ≤ 20% |  |  | 
CC(NC(=O)c1cccc(OS(=O)(=O)C(F)F)c1)c1ncnn1-c1ncccn1 (stereo not drawn) [Compound 7, 3-[[[1-[1-(2-Pyrimidinyl)-1H-1,2,4-triazol-5-yl]ethyl]amino]carbonyl]phenyl 1,1-difluoromethanesulfonate] |  | ≤ 20% |  |  | 

Structure (SMILES) | control efficacy (feeding damage) ([1]; sprayed at 50 ppm) | control efficacy (feeding damage) ([1]; sprayed at 250 ppm) | control efficacy (feeding damage) ([2]; sprayed at 50 ppm) | control efficacy (feeding damage) ([2]; sprayed at 250 ppm) | also measured
C[C@H](NC(=O)c1cc(Cl)cc(OS(=O)(=O)C(F)(F)F)c1)c1ncnn1-c1ncccn1 [Compound 8, 3-Chloro-5-[[[1-[1-(2-pyrimidinyl)-1H-1,2,4-triazol-5-yl]ethyl]amino]carbonyl]phenyl 1,1,1-trifluoromethanesulfonate; (−) enantiomer] |  | ≤ 20% |  |  | 
CC(NC(=O)c1cccc(OS(=O)(=O)C(F)F)c1)c1ncnn1-c1ccc(C#N)cn1 (stereo not drawn) [Compound 17, 3-[[[1-[1-(5-Cyano-2-pyridinyl)-1H-1,2,4-triazol-5-yl]ethyl]amino]carbonyl]phenyl 1,1-difluoromethanesulfonate] | ≤ 20% | ≤ 20% | ≤ 20% | ≤ 20% | 
CC(NC(=O)c1cc(Cl)cc(OS(=O)(=O)c2ccccc2)c1)c1ncnn1-c1ncccn1 (stereo not drawn) [Compound 5, 3-Chloro-5-[(phenylsulfonyl)oxy]-N-[1-[1-(2-pyrimidinyl)-1H-1,2,4-triazol-5-yl]ethyl]benzamide] | ≤ 20% | ≤ 20% | ≤ 20% | ≤ 20% | control efficacy (feeding damage) ([1]; sprayed at 10 ppm): ≤ 20%
CC(NC(=O)c1cc(Cl)cc(OS(=O)(=O)C(F)F)c1)c1ncnn1-c1ncccn1 (stereo not drawn) [Compound 39] | ≤ 20% |  | ≤ 20% |  | 
COC(=O)N(C(=O)c1cc(OS(=O)(=O)C(F)(F)F)cc(C(F)(F)F)c1)C(C)c1ncnn1-c1ncccn1 (stereo not drawn) [Compound 48] | ≤ 20% | ≤ 20% | ≤ 20% | ≤ 20% | 
CC(NC(=O)c1cc(Br)cc(OS(=O)(=O)C(F)(F)F)c1)c1ncnn1-c1ncccn1 (stereo not drawn) [Compound 15, 3-Bromo-5-[[[1-[1-(2-pyrimidinyl)-1H-1,2,4-triazol-5-yl]ethyl]amino]carbonyl]phenyl 1,1,1-trifluoromethanesulfonate] | ≤ 20% | ≤ 20% | ≤ 20% | ≤ 20% | control efficacy (feeding damage) ([1]; sprayed at 2 ppm): ≤ 20%; control efficacy (feeding damage) ([1]; sprayed at 10 ppm): ≤ 20%; control efficacy (feeding damage) ([2]; sprayed at 10 ppm): ≤ 20%
CC(NC(=O)c1cc(OS(=O)(=O)CC2CC2)cc(C(F)(F)F)c1)c1ncnn1-c1ccc(C#N)cn1 (stereo not drawn) [Compound 61] | ≤ 20% | ≤ 20% | ≤ 20% |  | 
CC(NC(=O)c1cc(F)cc(OS(=O)(=O)C(F)(F)F)c1)c1ncnn1-c1ccc(C#N)cn1 (stereo not drawn) [Compound 56] | ≤ 20% | ≤ 20% | ≤ 20% | ≤ 20% | control efficacy (feeding damage) ([1]; sprayed at 2 ppm): ≤ 20%; control efficacy (feeding damage) ([1]; sprayed at 10 ppm): ≤ 20%
COCCS(=O)(=O)Oc1cc(C(=O)NC(C)c2ncnn2-c2ccc(C#N)cn2)cc(C(F)(F)F)c1 (stereo not drawn) [Compound 62] |  | ≤ 20% | ≤ 20% |  | 
COc1ccc(S(=O)(=O)Oc2cc(C(=O)NC(C)c3ncnn3-c3ncccn3)cc(C(F)(F)F)c2)cc1 (stereo not drawn) [Compound 34] | ≤ 20% |  |  |  | 
CC(NC(=O)c1cc(OS(=O)(=O)c2ccc(C(F)(F)F)cc2)cc(C(F)(F)F)c1)c1ncnn1-c1ncccn1 (stereo not drawn) [Compound 36] | ≤ 20% |  |  |  | 
CC(NC(=O)c1cc(OS(=O)(=O)CCl)cc(C(F)(F)F)c1)c1ncnn1-c1ccc(C#N)cn1 (stereo not drawn) [Compound 54] |  | ≤ 20% |  |  | 
CC(NC(=O)c1cccc(OS(=O)(=O)c2ccccc2)c1)c1ncnn1-c1ncccn1 (stereo not drawn) [Compound 6, 3-[(Phenylsulfonyl)oxy]-N-[1-[1-(2-pyrimidinyl)-1H-1,2,4-triazol-5-yl]ethyl]benzamide] | ≤ 20% | ≤ 20% |  | ≤ 20% | 
Cc1cc(OS(=O)(=O)C(F)(F)F)cc(C(=O)NC(C)c2ncnn2-c2ncccn2)c1 (stereo not drawn) [Compound 45] |  | ≤ 20% |  |  | 
CC(c1ncnn1-c1ncccn1)N(CC1CC1)C(=O)c1cc(Cl)cc(OS(=O)(=O)C(F)(F)F)c1 (stereo not drawn) [Compound 10, 3-Chloro-5-[[(cyclopropylmethyl)[1-[1-(2-pyrimidinyl)-1H-1,2,4-triazol-5-yl]ethyl]amino]carbonyl]phenyl 1,1,1-trifluoromethanesulfonate] | ≤ 20% |  | ≤ 20% |  | control efficacy (feeding damage) ([1]; sprayed at 2 ppm): ≤ 20%; control efficacy (feeding damage) ([1]; sprayed at 10 ppm): ≤ 20%; control efficacy (feeding damage) ([2]; sprayed at 10 ppm): ≤ 20%
